The text below walks through data of PMC10920453.

Amino acid sequences for entries named in this document (tags omitted).
UniProt Q92993: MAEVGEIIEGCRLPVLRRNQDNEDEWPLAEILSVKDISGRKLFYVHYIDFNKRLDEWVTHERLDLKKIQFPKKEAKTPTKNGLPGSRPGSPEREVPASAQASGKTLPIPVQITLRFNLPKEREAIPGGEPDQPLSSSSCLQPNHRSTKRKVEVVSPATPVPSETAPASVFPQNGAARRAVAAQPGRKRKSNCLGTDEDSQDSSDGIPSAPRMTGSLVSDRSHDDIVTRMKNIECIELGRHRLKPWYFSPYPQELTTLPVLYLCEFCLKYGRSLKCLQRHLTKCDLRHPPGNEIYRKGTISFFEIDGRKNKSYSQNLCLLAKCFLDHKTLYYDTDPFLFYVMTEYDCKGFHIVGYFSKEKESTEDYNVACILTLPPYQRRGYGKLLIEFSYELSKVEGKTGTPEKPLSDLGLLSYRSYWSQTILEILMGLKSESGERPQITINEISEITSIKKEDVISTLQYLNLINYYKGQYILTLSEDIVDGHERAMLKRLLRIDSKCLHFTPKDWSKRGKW

The assay deals with Lysine acetyltransferase 5 (KAT5) (human (endogenous in HepG2)) (UniProt Q92993). Put plainly: co-IP; HepG2 cell lysate; precipitated with anti-KAT5 antibody (anti-IgG as negative control), Protein G/A beads, 4 °C; washed with 50 mM Tris-HCl pH 7.4, 100 mM NaCl, 5 mM CaCl2, 5 mM MgCl2, 0.1% Nonidet P-40; western blot with anti-ALDOA. (In general: In western blotting, separated proteins are transferred to a membrane and probed.)

These are yes or no findings as the source states them, for the method shown. Binding seen in cells or lysates may run through a third protein. Some results given as binding are weak or reduced against the parent protein; the word gives no strength.

B1: Aldolase A (ALDOA) (enzyme, UniProt P04075 1-364)
chain: MPYQYPALTPEQKKELSDIAHRIVAPGKGILAADESTGSIAKRLQSIGTENTEENRRFYRQLLLTADDRVNPCIGGVILFHETLYQKADDGRPFPQVIKSKGGVVGIKVDKGVVPLAGTNGETTTQGLDGLSERCAQYKKDGADFAKWRCVLKIGEHTPSALAIMENANVLARYASICQQNGIVPIVEPEILPDGDHDLKRCQYVTEKVLAAVYKALSDHHIYLEGTLLKPNMVTPGHACTQKFSHEEIAMATVTALRRTVPPAVTGITFLSGGQSEEEASINLNAINKCPLLKPWALTFSYGRALQASALKAWGGKKENLKAAQEEYVKRALANSLACQGKYTPSGQAGAAASESLFVSNHAY
Regarding B1, the binding result is listed as “binds”.
